Measurements as given in PMC8191029.
These are yes or no findings as the source states them, for the method shown. In cells and extracts the contact can be indirect. Some results given as binding are weak or reduced against the parent protein; the word gives no strength.

Amino acid sequences for entries named in this document (tags omitted).
UniProt Q9H6Z9: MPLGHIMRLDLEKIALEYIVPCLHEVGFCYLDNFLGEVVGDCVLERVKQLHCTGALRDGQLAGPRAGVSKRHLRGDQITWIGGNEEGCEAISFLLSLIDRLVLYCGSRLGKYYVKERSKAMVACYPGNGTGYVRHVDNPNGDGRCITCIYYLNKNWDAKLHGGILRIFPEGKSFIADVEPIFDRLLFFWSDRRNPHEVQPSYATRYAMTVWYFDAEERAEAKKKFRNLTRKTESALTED
UniProt Q93008: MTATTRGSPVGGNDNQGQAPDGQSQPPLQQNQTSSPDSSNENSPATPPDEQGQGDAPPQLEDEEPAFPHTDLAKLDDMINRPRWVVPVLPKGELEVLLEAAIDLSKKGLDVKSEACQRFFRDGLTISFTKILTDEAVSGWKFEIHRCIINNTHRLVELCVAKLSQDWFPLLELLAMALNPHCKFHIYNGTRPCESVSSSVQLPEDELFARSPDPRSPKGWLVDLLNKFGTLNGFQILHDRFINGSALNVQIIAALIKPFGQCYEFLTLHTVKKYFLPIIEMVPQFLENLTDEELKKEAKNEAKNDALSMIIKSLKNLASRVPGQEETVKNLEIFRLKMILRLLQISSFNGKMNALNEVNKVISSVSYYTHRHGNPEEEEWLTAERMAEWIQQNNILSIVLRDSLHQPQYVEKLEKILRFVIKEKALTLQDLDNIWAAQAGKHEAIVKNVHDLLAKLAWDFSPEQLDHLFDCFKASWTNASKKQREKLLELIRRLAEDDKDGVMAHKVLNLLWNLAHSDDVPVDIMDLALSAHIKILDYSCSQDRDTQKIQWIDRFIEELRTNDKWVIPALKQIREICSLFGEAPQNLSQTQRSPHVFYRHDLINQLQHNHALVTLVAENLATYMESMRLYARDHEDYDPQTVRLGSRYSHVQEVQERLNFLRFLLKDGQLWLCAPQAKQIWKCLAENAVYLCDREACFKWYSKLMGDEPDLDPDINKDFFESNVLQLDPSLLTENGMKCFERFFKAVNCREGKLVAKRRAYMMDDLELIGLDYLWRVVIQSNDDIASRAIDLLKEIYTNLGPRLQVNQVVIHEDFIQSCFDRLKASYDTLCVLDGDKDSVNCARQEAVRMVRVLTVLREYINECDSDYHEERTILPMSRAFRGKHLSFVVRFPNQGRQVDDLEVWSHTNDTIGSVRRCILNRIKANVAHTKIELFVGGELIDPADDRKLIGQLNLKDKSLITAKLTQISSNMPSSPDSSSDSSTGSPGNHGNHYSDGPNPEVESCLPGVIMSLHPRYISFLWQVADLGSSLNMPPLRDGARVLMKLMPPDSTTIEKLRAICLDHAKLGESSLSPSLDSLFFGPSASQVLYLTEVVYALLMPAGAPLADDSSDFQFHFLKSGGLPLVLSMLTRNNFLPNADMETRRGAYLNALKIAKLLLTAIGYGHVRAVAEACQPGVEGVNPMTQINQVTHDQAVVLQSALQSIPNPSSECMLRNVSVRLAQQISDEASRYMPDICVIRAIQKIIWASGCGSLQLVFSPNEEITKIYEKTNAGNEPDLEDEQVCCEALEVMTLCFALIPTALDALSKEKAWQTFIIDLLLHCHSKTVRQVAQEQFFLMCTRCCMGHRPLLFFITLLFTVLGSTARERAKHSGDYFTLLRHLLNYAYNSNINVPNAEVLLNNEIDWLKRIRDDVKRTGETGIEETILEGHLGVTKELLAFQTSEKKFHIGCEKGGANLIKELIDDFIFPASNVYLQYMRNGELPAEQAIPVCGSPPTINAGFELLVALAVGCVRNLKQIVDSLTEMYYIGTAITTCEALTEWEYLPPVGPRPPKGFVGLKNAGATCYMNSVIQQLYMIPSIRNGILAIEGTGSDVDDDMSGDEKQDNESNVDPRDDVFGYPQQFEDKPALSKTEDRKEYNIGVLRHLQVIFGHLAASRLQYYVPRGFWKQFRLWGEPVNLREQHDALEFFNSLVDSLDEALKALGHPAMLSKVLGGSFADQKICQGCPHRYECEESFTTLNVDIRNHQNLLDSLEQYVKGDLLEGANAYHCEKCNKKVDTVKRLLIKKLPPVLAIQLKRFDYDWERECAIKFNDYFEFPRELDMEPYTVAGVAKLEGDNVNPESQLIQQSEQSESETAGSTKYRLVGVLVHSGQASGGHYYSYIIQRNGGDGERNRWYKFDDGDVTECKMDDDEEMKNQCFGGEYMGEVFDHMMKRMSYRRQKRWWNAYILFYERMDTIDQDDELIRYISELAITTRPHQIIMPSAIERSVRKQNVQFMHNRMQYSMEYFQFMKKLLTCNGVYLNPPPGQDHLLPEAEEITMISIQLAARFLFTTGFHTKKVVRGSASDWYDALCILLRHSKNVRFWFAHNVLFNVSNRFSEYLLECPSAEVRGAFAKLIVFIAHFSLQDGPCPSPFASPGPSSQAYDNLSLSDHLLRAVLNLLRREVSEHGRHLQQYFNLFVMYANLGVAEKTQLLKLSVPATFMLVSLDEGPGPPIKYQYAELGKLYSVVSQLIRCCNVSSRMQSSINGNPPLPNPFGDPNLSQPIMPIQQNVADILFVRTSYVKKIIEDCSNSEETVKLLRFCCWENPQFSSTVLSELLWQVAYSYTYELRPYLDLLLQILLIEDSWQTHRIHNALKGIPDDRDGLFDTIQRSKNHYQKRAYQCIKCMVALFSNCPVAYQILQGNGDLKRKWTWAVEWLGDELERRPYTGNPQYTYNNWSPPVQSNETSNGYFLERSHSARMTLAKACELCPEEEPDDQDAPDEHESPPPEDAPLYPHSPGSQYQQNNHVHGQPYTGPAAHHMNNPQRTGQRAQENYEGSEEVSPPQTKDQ

Assays:
HA-EGLN3 = HA-EGLN3 (UniProt Q9H6Z9); test: co-IP; HEK293T cells transiently expressing Flag-USP9X and HA-EGLN3; lysates (NP40 lysis buffer) immunoprecipitated with anti-Flag or anti-HA antibody overnight at 4 °C, Protein A/G, immunoblotting
[1] = target: Ubiquitin-specific peptidase 9X (human (endogenous in RBE and HUCCT)) (UniProt Q93008); test: co-IP; endogenous proteins; lysates of RBE and HUCCT cells (NP40 lysis buffer) immunoprecipitated with control IgG, anti-USP9X or anti-EGLN3 antibody overnight at 4 °C, Protein A/G, immunoblotting
[2] = target: prolyl 4-hydroxylase domain protein 3 (human (endogenous in RBE and HUCCT)) (UniProt Q9H6Z9); test: as above
Flag-USP9X = Flag-USP9X (UniProt Q93008); test: co-IP; HEK293T cells transiently expressing Flag-USP9X and HA-EGLN3; lysates (NP40 lysis buffer) immunoprecipitated with anti-Flag or anti-HA antibody overnight at 4 °C, Protein A/G, immunoblotting

For “Flag-USP9X (from UniProt Q93008 1-2554) (enzyme)”, the binding (HA-EGLN3) was “binds”.
With “prolyl 4-hydroxylase domain protein 3 (from UniProt Q9H6Z9 1-239) (enzyme)” the binding [1] was “binds”.
“Ubiquitin-specific peptidase 9X (from UniProt Q93008 1-2554) (enzyme)” was tested, and the binding [2] was “binds”.
“HA-EGLN3 (from UniProt Q9H6Z9 1-239) (enzyme)” was tested, and the binding (Flag-USP9X) was “binds”.
